# The list shows a part of the results.
# By UniProt entry, the sequences of proteins in these tests, tags left out. Where a name states a change or a piece, a line headed by the entry shows the natural chain unless it says otherwise.
# UniProt Q9ULJ7: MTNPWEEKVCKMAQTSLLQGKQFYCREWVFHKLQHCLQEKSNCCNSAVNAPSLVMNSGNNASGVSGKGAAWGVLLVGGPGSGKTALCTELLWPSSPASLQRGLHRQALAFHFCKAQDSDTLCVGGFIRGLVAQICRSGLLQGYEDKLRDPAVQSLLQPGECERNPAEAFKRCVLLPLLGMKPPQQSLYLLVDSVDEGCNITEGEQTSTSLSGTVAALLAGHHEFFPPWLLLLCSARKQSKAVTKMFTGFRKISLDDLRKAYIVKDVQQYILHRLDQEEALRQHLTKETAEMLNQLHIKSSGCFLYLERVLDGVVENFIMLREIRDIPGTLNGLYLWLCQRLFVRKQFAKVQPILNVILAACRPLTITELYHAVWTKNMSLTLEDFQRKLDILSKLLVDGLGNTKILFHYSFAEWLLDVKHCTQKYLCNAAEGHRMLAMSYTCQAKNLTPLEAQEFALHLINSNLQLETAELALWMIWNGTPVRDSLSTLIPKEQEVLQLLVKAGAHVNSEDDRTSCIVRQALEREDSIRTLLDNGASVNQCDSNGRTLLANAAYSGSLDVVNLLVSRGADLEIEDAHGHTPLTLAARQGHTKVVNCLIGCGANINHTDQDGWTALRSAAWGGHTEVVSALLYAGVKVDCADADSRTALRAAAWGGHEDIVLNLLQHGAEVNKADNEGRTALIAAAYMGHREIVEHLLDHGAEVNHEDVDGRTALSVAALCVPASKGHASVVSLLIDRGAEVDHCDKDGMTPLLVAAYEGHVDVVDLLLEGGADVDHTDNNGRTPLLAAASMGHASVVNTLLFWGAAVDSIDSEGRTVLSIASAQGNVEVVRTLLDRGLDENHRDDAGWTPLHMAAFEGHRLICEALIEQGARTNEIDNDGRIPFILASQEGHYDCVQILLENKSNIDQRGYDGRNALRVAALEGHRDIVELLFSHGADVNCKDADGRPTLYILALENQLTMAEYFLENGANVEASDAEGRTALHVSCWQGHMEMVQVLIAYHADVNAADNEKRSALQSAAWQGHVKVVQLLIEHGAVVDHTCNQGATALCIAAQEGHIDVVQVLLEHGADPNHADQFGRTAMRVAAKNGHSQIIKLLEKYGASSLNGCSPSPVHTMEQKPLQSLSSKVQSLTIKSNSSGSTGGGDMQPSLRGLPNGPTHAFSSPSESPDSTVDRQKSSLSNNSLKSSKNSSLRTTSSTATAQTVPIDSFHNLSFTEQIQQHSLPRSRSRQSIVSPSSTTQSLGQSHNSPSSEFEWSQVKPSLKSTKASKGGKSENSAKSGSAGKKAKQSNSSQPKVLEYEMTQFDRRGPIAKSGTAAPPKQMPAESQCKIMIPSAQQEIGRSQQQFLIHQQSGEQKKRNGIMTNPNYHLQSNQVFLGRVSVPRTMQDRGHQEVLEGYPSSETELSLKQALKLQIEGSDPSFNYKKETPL
# UniProt O94973, whole entry, looked up: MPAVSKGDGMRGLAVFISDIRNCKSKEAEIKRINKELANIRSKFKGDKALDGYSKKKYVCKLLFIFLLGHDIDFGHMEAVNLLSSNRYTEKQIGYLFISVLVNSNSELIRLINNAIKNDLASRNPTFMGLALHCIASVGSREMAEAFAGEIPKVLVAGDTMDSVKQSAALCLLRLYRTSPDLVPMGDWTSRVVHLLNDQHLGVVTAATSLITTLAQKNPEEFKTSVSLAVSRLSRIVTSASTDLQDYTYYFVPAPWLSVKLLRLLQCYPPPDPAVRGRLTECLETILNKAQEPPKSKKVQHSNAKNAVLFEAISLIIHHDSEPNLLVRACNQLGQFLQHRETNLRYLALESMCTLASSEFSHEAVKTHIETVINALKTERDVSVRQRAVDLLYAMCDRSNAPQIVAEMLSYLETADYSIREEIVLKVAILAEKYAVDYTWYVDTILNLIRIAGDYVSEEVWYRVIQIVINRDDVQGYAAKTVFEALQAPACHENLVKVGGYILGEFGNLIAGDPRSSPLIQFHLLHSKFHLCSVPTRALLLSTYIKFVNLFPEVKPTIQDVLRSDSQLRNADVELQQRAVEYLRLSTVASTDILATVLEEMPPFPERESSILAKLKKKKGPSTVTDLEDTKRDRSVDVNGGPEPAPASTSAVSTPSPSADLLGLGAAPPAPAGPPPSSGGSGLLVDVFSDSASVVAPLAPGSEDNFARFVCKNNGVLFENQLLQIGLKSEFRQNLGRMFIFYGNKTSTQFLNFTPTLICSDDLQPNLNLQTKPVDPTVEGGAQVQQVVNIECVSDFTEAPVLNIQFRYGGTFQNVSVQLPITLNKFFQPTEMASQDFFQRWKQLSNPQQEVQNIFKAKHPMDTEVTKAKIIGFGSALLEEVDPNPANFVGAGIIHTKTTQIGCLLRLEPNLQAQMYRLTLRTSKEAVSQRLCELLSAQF
# UniProt P20073: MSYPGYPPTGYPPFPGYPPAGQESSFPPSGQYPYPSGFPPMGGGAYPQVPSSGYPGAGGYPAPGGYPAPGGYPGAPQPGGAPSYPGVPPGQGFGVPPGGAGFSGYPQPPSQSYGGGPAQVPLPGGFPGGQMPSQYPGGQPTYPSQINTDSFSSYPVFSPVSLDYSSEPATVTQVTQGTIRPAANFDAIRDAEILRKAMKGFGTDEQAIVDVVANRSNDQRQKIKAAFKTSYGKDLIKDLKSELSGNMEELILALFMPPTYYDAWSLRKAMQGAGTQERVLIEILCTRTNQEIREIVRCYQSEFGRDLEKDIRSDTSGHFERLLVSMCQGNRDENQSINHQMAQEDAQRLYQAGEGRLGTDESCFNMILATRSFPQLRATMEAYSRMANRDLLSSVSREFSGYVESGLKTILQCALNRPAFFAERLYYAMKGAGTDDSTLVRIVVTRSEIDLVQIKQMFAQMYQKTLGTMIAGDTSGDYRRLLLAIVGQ
# UniProt Q9HDC9: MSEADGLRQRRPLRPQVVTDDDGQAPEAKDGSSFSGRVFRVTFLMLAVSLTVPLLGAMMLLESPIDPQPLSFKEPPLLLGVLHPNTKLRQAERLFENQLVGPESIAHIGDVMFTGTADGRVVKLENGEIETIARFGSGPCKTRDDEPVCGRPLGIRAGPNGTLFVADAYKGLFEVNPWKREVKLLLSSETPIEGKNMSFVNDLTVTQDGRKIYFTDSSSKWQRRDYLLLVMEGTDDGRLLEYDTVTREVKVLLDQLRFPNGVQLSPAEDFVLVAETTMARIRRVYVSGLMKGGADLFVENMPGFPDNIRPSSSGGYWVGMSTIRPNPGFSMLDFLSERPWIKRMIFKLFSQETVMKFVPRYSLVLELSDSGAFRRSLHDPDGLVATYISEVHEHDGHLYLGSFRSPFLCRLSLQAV
# UniProt Q7Z5R6: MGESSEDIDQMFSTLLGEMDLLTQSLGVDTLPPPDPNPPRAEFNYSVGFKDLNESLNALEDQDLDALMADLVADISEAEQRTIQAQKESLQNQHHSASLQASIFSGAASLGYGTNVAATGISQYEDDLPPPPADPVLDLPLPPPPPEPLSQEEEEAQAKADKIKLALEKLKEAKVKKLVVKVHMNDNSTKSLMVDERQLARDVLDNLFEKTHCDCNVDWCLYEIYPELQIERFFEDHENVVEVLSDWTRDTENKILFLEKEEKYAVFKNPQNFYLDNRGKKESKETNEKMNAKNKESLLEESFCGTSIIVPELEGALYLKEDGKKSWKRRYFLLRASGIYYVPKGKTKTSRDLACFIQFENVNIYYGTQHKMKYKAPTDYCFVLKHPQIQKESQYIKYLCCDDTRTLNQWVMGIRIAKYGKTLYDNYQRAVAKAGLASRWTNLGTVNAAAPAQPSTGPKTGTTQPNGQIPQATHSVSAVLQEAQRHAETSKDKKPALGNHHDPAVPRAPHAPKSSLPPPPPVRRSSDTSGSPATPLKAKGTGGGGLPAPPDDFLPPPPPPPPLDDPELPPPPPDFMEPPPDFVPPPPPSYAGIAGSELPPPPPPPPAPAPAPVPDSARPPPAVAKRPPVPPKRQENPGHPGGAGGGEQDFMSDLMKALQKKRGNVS
# UniProt Q9NQW6: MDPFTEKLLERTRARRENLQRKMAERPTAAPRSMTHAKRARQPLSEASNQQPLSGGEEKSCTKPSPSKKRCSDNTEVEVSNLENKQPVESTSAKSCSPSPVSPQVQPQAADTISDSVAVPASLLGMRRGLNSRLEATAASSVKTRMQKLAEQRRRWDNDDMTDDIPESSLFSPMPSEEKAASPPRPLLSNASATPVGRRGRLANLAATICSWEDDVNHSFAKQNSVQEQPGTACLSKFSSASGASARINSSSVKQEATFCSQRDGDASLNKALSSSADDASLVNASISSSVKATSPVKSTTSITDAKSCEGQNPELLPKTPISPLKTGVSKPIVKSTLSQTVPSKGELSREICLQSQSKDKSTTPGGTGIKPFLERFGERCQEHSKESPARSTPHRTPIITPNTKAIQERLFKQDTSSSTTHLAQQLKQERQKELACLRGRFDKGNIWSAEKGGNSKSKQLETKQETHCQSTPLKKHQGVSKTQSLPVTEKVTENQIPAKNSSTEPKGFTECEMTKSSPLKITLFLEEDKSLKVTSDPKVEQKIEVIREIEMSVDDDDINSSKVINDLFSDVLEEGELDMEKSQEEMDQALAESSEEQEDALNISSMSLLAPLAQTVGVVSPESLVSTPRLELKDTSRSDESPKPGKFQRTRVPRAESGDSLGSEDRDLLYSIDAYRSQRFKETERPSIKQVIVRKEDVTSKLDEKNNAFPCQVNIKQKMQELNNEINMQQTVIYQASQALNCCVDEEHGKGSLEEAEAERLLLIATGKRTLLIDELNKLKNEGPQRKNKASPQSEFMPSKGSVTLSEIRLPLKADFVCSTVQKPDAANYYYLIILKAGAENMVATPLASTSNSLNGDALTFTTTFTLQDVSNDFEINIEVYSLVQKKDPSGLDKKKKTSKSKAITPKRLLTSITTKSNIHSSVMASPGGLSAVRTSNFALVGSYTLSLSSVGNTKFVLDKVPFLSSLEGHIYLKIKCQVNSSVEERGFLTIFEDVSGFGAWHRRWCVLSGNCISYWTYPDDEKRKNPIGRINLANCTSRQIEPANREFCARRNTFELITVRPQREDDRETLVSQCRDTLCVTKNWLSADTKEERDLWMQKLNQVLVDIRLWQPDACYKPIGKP
# UniProt O15084: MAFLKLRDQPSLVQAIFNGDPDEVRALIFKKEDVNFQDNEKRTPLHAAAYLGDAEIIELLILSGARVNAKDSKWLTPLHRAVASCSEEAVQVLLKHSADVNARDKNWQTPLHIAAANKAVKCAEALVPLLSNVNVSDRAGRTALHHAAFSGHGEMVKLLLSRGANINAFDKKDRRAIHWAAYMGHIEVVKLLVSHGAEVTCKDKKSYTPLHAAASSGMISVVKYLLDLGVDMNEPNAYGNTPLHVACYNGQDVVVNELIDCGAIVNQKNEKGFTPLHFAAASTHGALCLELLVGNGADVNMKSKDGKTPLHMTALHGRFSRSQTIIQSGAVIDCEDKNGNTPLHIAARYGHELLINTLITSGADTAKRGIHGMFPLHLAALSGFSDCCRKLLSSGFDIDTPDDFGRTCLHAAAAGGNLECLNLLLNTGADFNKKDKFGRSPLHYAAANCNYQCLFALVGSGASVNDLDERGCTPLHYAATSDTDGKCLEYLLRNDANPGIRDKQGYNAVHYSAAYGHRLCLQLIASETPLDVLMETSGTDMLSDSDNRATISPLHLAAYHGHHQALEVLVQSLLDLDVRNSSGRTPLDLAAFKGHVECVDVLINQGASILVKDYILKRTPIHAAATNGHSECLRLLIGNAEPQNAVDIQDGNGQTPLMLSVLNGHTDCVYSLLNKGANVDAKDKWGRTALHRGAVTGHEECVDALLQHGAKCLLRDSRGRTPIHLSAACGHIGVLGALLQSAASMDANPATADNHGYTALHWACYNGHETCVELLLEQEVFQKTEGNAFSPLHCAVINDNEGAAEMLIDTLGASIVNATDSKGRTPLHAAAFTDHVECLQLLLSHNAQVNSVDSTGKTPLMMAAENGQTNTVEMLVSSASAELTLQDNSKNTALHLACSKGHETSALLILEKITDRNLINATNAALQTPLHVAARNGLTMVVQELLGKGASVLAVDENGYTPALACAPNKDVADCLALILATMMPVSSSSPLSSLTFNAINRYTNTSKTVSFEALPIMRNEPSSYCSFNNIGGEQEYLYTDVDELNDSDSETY
# UniProt P27695, whole entry, looked up: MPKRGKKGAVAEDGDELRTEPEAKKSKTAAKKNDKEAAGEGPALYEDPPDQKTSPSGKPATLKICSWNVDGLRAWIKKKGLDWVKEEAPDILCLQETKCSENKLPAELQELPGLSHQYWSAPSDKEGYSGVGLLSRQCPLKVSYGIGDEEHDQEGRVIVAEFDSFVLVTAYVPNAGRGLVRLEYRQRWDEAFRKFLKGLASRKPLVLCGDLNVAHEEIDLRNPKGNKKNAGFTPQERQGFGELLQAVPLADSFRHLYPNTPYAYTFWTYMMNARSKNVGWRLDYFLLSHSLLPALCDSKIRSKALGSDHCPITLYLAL
# Compound: Cc1cc(ccc1-c1ccccc1)C(=O)N1CCCN(CC1)C(=O)CCl [compound 10]
# Assay: probe-labelled cysteine peptide fold change vs DMSO (competition) (log2 fold change); higher = less target engagement (more negative = stronger competition)
# Details: THP-1, incubation time: 4 h
# 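Also: competitive profiling in live THP-1 cells: cysteine peptides tagged with an iodoacetamide desthiobiotin (IA-DTB) probe, intensity after compound treatment relative to DMSO-treated cells.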
Target,probe-labelled cysteine peptide fold change (10 µM),probe-labelled cysteine peptide fold change (50 µM)
ANKHD1_Q8IWZ3_615_AGHLCTVQFLISK (UniProt Q8IWZ3),-0.149,-0.568
ANKRD50_Q9ULJ7_744_GAEVDHCDK (UniProt Q9ULJ7),0.0279,0.216
AP2A2_O94973_491_TVFEALQAPACHENLVK (UniProt O94973),0.0467,-0.0424
ANXA7_P20073_298_CYQSEFGR (UniProt P20073),0.106,0.0364
ANKRD17_O75179_564_AGADIELGCSTPLMEAAQEGHLELVK (UniProt O75179),0.0101,-0.0606
APMAP_Q9HDC9_149_DDEPVCGR (UniProt Q9HDC9),0.377,0.515
ANKRD50_Q9ULJ7_442_MLAMSYTCQAK (UniProt Q9ULJ7),-0.0618,-0.0358
AP2A1_O95782_129_NPTFMCLALHCIANVGSR (UniProt O95782),0.052,0.122
APBB1IP_Q7Z5R6_220_THCDCNVDWCLYEIYPELQIER (UniProt Q7Z5R6),0.118,0.153
AP2B1_P63010_144_TAAVCVAK (UniProt P63010),0.012,-0.112
ANKRD44_Q8N8A2_368+388_CGIHSMFPLHLAALNAHSDCCR (UniProt Q8N8A2),-0.329,-0.698
AP2A1_O95782_225_TCVSLAVSR (UniProt O95782),0.0673,0.11
AP2B1_P63010_565_PLISEETDLIEPTLLDELICHIGSLASVYHKPPNAFVEGSHGIHR (UniProt P63010),0.119,-0.142
AP5B1_Q2VPB7_420_LHLLCLLCAEEEEEEK (UniProt Q2VPB7),0.0845,0.0577
ANKRD52_Q8NB46_733_GAVTGCEDCLAALLDHDAFVLCR (UniProt Q8NB46),0.0081,-0.433
ANKS1A_Q92625_211_MLLNAHPNLLSCNTK (UniProt Q92625),0.111,-0.228
APAF1_O14727_538_DCAVSENFQEFLSLNGHLLGR (UniProt O14727),0.0135,-0.00605
AP1B1_Q10567_57_DVSALFPDVVNCMQTDNLELK (UniProt Q10567),0.133,-0.0282
ANKRD52_Q8NB46_733+749_GAVTGCEDCLAALLDHDAFVLCR (UniProt Q8NB46),-0.196,-0.826
ANP32E_Q9BTT0_87_CPNLTYLNLSGNK (UniProt Q9BTT0),0.00877,-0.115
API5_Q9BZZ5_345_LQFSYVECLLYSFHQLGR (UniProt Q9BZZ5),0.555,0.966

Target,probe-labelled cysteine peptide fold change (10 µM),probe-labelled cysteine peptide fold change (50 µM)
AP2M1_Q96CW1_251_QSIAIDDCTFHQCVR (UniProt Q96CW1),0.122,0.000365
ANO6_Q4KMQ2_105_RQAYESNLICHGLQLEATR (UniProt Q4KMQ2),-0.065,-0.188
ANKMY2_Q8IV38_41_VNCLDENGMTPLMHAAYK (UniProt Q8IV38),0.163,-0.0437
APOBEC3F_Q8IUX4_36_RNTVWLCYEVK (UniProt Q8IUX4),0.021,0.0976
ANKMY2_Q8IV38_74_HGADVNCHQHEHGYTALMFAALSGNK (UniProt Q8IV38),0.0756,0.345
ANKLE1_Q8NAG6_124_GLELLLSQGADPALRDQDGLRPLDLALQQGHLECAR (UniProt Q8NAG6),0.169,0.0214
ANKMY2_Q8IV38_227_MHYISCIFQK (UniProt Q8IV38),-0.211,0.55
ANKRD17_O75179_1336_FCELLIGR (UniProt O75179),0.282,-0.0934
APBB1IP_Q7Z5R6_355_DLACFIQFENVNIYYGTQHK (UniProt Q7Z5R6),0.105,0.0924
ANXA5_P08758_316_ALLLLCGEDD (UniProt P08758),-0.0286,0.0276
ANKRD11_Q6UB99_1339_ESACLPEK (UniProt Q6UB99),-0.0313,-0.174
ANKRD17_O75179_1622_ISSCSDESSNSNSSR (UniProt O75179),0.381,0.134
ANKRD17_O75179_1418_EVNQFPSDSECMR (UniProt O75179),-0.0202,0.0276
APC_P25054_661_ENNCLQTLLQHLK (UniProt P25054),-0.139,-0.186
ANKRD54_Q6NXT1_265_LDDLCTR (UniProt Q6NXT1),-0.0526,-0.562
ANXA6_P08133_59_QEVCQSYK (UniProt P08133),0.0581,0.0246
AP2B1_P63010_129_CLKDEDPYVR (UniProt P63010),-0.000581,-0.52
AP2A2_O94973_282_LTECLETILNK (UniProt O94973),-0.294,-0.0771
ANLN_Q9NQW6_309_SCEGQNPELLPK (UniProt Q9NQW6),-0.285,-0.113
AP1G1_O43747_70_LLYMHMLGYPAHFGQLECLK (UniProt O43747),0.00199,0.107
AP2A1_O95782_215_VVHLLNDQHMGVVTAAVSLITCLCK (UniProt O95782),0.000516,0.00546

Target,probe-labelled cysteine peptide fold change (10 µM),probe-labelled cysteine peptide fold change (50 µM)
APAF1_O14727_8_NCLLQHR (UniProt O14727),0.0229,-0.322
APOBEC3C_Q9NRW3_70_CFLSWFCDDILSPNTK (UniProt Q9NRW3),0.106,0.12
APAF1_O14727_749_NTMFGHTNSVNHCR (UniProt O14727),0.242,0.00807
AP1G2_O75843_125_NDLSQGIQPVQGLALCTLSTMGSAEMCR (UniProt O75843),0.109,0.244
ANKRD27_Q96NW4_795_CLLDSNAK (UniProt Q96NW4),0.214,-0.253
AP2A1_O95782_213_VVHLLNDQHMGVVTAAVSLITCLCK (UniProt O95782),-0.147,-0.256
AP3D1_O14617_1089_ICFHHHFSVVER (UniProt O14617),0.239,0.176
ANKRD27_Q96NW4_795_CLLDSNAKPNKK (UniProt Q96NW4),0.102,-0.773
AP2A2_O94973_903_TTQIGCLLR (UniProt O94973),0.00156,0.0573
ANKRD50_Q9ULJ7_113_QALAFHFCK (UniProt Q9ULJ7),1.31,1.7
AP3M1_Q9Y2T2_10_MIHSLFLINCSGDIFLEK (UniProt Q9Y2T2),0.166,0.0677
APEH_P13798_30_QPALSAACLGPEVTTQYGGQYR (UniProt P13798),0.0938,0.25
ANO6_Q4KMQ2_426_CTHVVINEITQEEERIPFTAWGK (UniProt Q4KMQ2),-0.386,-0.657
ANO6_Q4KMQ2_261_QSEDPSCPNER (UniProt Q4KMQ2),-0.129,0.0969
ANXA7_P20073_363_LGTDESCFNMILATR (UniProt P20073),0.0712,-0.0528
APOBEC3B_Q9UH17_354_QGCPFQPWDGLEEHSQALSGR (UniProt Q9UH17),-0.00779,0.0282
ANKRD28_O15084_201_LLVSHGAEVTCK (UniProt O15084),-0.0595,0.174
AOC1_P19801_181_CLAFTDVAPR (UniProt P19801),-0.0889,-0.0715
APEX1_P27695_93_GLDWVKEEAPDILCLQETK (UniProt P27695),-0.315,-0.706
ANKRD16_Q6P6B7_32+43_EELQAAGGCPGPAGDTLLHCAAR (UniProt Q6P6B7),-0.341,-0.618
AP3M2_P53677_236_LLDDVSFHPCVR (UniProt P53677),0.0842,0.131

Target,probe-labelled cysteine peptide fold change (10 µM),probe-labelled cysteine peptide fold change (50 µM)
APMAP_Q9HDC9_149_TRDDEPVCGR (UniProt Q9HDC9),0.0268,0.291
ANLN_Q9NQW6_210_LANLAATICSWEDDVNHSFAK (UniProt Q9NQW6),0.414,0.305
ANKRD44_Q8N8A2_731_GIMTGHEECVQMLLEQEVSILCK (UniProt Q8N8A2),0.0528,-0.279
ANKRD17_O75179_409_ESALTLACYK (UniProt O75179),0.231,0.0632
ANKRD28_O15084_598_GHVECVDVLINQGASILVK (UniProt O15084),-0.0607,-0.351
ANKZF1_Q9H8Y5_180_CVLGPHQDPPEEAELLLQNLQSR (UniProt Q9H8Y5),-0.0318,-0.122
AP2B1_P63010_241_DDREAQSICER (UniProt P63010),-0.08,0.0189
AP1B1_Q10567-3_914_IQPGNPSCTLSLK (UniProt Q10567),0.133,0.133
APEX1_P27695_208_KPLVLCGDLNVAHEEIDLR (UniProt P27695),0.00931,0.154
APBB1IP_Q7Z5R6_213_THCDCNVDWCLYEIYPELQIER (UniProt Q7Z5R6),0.126,0.161
ANP32B_Q92688_123_SLDLFNCEVTNLNDYRESVFK (UniProt Q92688),-0.0375,-0.493
ANKS1A_Q92625_75_GPNVNCVDSTGYTPLHHAALNGHK (UniProt Q92625),0.145,-0.0279
APOBR_Q0VD83_149_AGSGACQDR (UniProt Q0VD83),-0.37,-0.408
APIP_Q96GX9_188_MAHAMNEYPDSCAVLVR (UniProt Q96GX9),0.165,0.102
ANP32A_P39687_123_SLDLFNCEVTNLNDYRENVFK (UniProt P39687),0.184,-0.114
AP1G2_O75843_354_HRPTVVECLR (UniProt O75843),-0.0711,-0.0489
APEX1_P27695_296_LDYFLLSHSLLPALCDSK (UniProt P27695),0.17,0.246
APOBR_Q0VD83_895_CGDYHPEGEAPR (UniProt Q0VD83),-0.0609,0.0559
APEX1_P27695_93_EEAPDILCLQETK (UniProt P27695),-0.436,-0.0795
ANKRD10_Q9NXR5_140_SGSLECISALVANGAHVDLR (UniProt Q9NXR5),-0.235,-0.443

# Some of the entries above, set out differently.
Target | probe-labelled cysteine peptide fold change (10 µM) | probe-labelled cysteine peptide fold change (50 µM)
ANKRD50_Q9ULJ7_744_GAEVDHCDK (UniProt Q9ULJ7) | 0.0279 | 0.216
AP2A2_O94973_491_TVFEALQAPACHENLVK (UniProt O94973) | 0.0467 | -0.0424
ANXA7_P20073_298_CYQSEFGR (UniProt P20073) | 0.106 | 0.0364
ANKRD17_O75179_564_AGADIELGCSTPLMEAAQEGHLELVK (UniProt O75179) | 0.0101 | -0.0606

# From the supplement of paper PMC12067093, “Discovery and optimisation of a covalent ligand for TRIM25 and its application to targeted protein ubiquitination” (Chemical Science, 2025)
